Experimental data: PMC4801951
Results are given in words; binding and its absence hold for the method and conditions named. Binding seen in cells or lysates may run through a third protein. Some binding calls cover weakened binding; strength is not graded here.

The chains behind the UniProt entries cited, without tags or fusion partners.
UniProt P42227: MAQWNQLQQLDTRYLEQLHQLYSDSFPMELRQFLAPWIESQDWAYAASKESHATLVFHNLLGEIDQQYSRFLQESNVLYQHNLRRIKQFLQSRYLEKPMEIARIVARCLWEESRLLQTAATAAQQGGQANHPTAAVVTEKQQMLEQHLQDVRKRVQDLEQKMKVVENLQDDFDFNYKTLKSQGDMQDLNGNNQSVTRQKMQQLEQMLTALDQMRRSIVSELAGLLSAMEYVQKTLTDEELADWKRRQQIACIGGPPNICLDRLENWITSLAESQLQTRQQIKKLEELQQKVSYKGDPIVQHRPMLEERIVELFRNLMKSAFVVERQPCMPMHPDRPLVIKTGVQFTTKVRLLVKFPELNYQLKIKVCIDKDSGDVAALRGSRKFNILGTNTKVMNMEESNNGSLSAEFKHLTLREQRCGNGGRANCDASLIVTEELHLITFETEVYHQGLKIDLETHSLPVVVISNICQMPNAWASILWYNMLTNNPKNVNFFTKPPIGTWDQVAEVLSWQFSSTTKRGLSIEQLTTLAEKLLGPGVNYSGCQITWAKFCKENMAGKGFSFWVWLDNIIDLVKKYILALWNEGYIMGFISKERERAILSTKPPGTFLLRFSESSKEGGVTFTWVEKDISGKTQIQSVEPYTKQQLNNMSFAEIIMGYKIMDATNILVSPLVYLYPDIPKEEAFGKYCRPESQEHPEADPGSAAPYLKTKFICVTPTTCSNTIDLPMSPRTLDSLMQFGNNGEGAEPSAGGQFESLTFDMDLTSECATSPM

Biological target: T1, Atad3 (mouse (endogenous in mouse ES cells)) (UniProt Q925I1)
T1 sequence: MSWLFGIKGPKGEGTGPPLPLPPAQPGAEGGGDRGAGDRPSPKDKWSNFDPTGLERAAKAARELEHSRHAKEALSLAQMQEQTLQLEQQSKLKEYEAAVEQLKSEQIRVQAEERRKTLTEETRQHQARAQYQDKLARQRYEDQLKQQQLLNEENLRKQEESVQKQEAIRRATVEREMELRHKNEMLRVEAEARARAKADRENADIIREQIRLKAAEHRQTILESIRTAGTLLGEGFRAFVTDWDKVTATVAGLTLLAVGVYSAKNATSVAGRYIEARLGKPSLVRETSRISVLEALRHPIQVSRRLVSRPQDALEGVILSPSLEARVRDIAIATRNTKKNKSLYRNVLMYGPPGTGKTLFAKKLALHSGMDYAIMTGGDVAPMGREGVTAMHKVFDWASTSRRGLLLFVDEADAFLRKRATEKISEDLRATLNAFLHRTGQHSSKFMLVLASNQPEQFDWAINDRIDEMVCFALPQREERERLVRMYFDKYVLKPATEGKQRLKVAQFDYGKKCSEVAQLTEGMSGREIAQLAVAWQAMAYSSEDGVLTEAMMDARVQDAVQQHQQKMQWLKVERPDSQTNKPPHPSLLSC
Test: proximity ligation; fixed mouse ES cells, anti-Stat3 and anti-Atad3 primary antibodies overnight, OLink Bioscience kit, confocal imaging, red dots per cell counted; single antibodies and Stat3-/- cells as controls

How did the binding turn out when Stat3 (from UniProt P42227 1-770) was run?
The binding was “binds”.
